Test results from patent publication US20200148635A1 (priority 2017, published 2020).
Read-outs that look alike come from different tables or passages of the source. Some of these results come from one statement about several compounds together. At least one compound was matched to its structure with a doubt left.

Columns and labels:
Fusarium culmorum = experiment: Greenhouse Fusarium culmorum test in wheat, preventive; format: in vivo; details: 500 ppm; preventive spray on wheat plants, inoculated one day after treatment with Fusarium culmorum
Bortytis cinera = experiment: Greenhouse Bortytis cinera test in tomato, preventive; format: in vivo; details: 500 ppm; preventive spray on tomato plants, inoculated one day after treatment with Bortytis cinera
Experimental: Bortytis cinera Test in Tomato
Compounds were dissolved in 2% DMSO/Acetone and then mixed with water to calibrated spray volume of 50 mL. This 50 mL spray solution was poured into the spray bottles for further applications.
(§1) To test the preventive activity of compounds, healthy young tomato plants raised in the greenhouse were sprayed with active compound preparation at the stated application rates inside the spray cabinets using hallowcone nozzles. One day after treatment, the plants were inoculated with spore suspension (2% Malt) containing 1.2×10^6 Bortytis cinera inoculum. The inoculated plants were then kept in greenhouse chamber at 18-20° C. temperature and 90-100% relative humidity for disease expression.
(§2) A visual assessment of compound's performance was carried by rating the disease severity (0-100% scale) on treated plants on 3, 7, 10 and 15 days after application. Efficacy (% control) of the compounds was calculated by comparing the disease rating in the treatment with untreated control. The sprayed plants were also assessed for compound's phytotoxic effects by recording symptoms like necrosis, chlorosis and stunting.

Alternaria solani [1] = experiment: Greenhouse Alternaria solani test in tomato, preventive; format: in vivo; details: 500 ppm; preventive spray on tomato plants, inoculated one day after treatment with Alternaria solani
Colletotrichum capsici = experiment: In vitro test Colletotrichum capsici (anthracnose), radial growth on Potato Dextrose Agar; format: cell-based; details: 300 ppm, agar plate, 25° C., seven days
Septoria lycopersici = experiment: In vitro test Septoria lycopersici (leaf spot of tomato), radial growth on Potato Dextrose Agar; format: cell-based; details: 300 ppm, agar plate, 25° C., seven days
Experimental: Septoria lycopersici (Leaf Spot of Tomato):
(§3) Compounds were dissolved in 0.3% DMSO and then added to Potato Dextrose Agar medium just prior to dispensing it into Petri dishes. 5 mL medium with compound in the desired concentration was dispensed into 60 mm sterile Petri-plates. After solidification each plate was seeded with 5 mm size mycelial disc taken form periphery of actively growing virulent culture plate. Plates were incubated in growth chambers at 25° C. temperature and 70% relative humidity for seven days and radial growth was measured.

Botrytis cinerea = experiment: In vitro test Botrytis cinerea (gray mold), radial growth on Potato Dextrose Agar; format: cell-based; details: 300 ppm, agar plate, 22° C., seven days
Alternaria solani [2] = experiment: In vitro test Alternaria solani (early blight of tomato/potato), radial growth on Potato Dextrose Agar; format: cell-based; details: 300 ppm, agar plate, 25° C., seven days
Experimental: as §3, with “Alternaria solani (early blight of tomato/potato): Compounds” for “Compounds”, “60%” for “70%”

Pyricularia oryzae [3] = format: cell-based; details: 300 ppm, agar plate, 25° C., seven days, radial growth
Phakopsora pachyrhizi = experiment: Greenhouse Phakopsora pachyrhizi test in soybean, preventive; format: in vivo; details: 500 ppm; preventive spray on soybean plants, inoculated one day after treatment with Phakopsora pachyrhizi
Experimental: Phakopsora pachyrhizi Test in Soybean
Compounds were dissolved in 2% DMSO/Acetone and then mixed with water to the calibrated spray volume of 50 mL and poured into the spray bottles for further applications.
as §1, with “soybean” for “tomato”, “suspension” for “suspension (2% Malt)”, “2.1×10^6 Phakopsora pachyrhizi” for “1.2×10^6 Bortytis cinera”, “25°” for “18-20°”, “90%” for “90-100%”
as §2, with “carried out” for “carried”, “with the one of the” for “with”, “plant compatibility” for “phytotoxic effects”

Pyricularia oryzae [4] = format: in vivo; details: 500 ppm; preventive spray on rice seedlings/plants, inoculated one day after treatment with Pyricularia oryzae
Rhizoctonia solani = experiment: In vitro test Rhizoctonia solani (rice sheath blight/potato black scurf), radial growth on Potato Dextrose Agar; format: cell-based; details: 300 ppm, agar plate, 25° C., seven days
Experimental: Rhizoctonia solani (Rice Sheath Blight/Potato Black Scurf):
as §3, with “60%” for “70%”

| SMILES | control compared to the untreated check (Fusarium culmorum) | control compared to the untreated check (Alternaria solani [1]) | control compared to the untreated check (Botrytis cinerea) | control compared to the untreated check (Alternaria solani [2]) | further results |
| --- | --- | --- | --- | --- | --- |
| CCN(C)C=Nc1cc(C)c(Oc2cccc(S(=O)(=NC(=O)C(F)(F)F)C(C)C)c2)cc1Cl (stereo not drawn) [Compound 10] | > 70% | > 70% | more than 70% | more than 70% | control compared to the untreated check (Bortytis cinera): > 70%; control compared to the untreated check (Colletotrichum capsici): more than 70%; control compared to the untreated check (Septoria lycopersici): more than 70% |
| CCN(C)C=Nc1cc(C)c(Oc2cccc(S(C)(=O)=NCc3ccccc3)c2)cc1Cl (stereo not drawn) [Compound 21] |  | > 70% | more than 70% |  |  |
| CCN(C)C=Nc1cc(C)c(S(C)(=O)=Nc2cc(F)c(F)c(F)c2)cc1Cl (stereo not drawn) [Compound 23] | > 70% |  |  |  | control compared to the untreated check (Pyricularia oryzae [3]): more than 70% |
| CCN(C)C=Nc1cc(Br)c(Oc2cccc(S(C)(=O)=NC(C)=O)c2)nc1C (stereo not drawn) [Compound 32] | > 70% |  |  |  | control compared to the untreated check (Pyricularia oryzae [3]): more than 70% |
| CCN(C)C=Nc1cc(Br)c(Oc2cccc(S(C)(=N)=O)c2)nc1C (stereo not drawn) [Compound 38] | > 70% |  |  | more than 70% | control compared to the untreated check (Phakopsora pachyrhizi): > 70% |
| C#CCN=S(C)(=O)c1cccc(Oc2cc(Cl)c(N=CN(C)CC)cc2C)c1 (stereo not drawn) [Compound 48] |  |  |  |  | control compared to the untreated check (Pyricularia oryzae [3]): more than 70%; control compared to the untreated check (Pyricularia oryzae [4]): > 70% |
| CCN(C)C=Nc1cc(Br)c(Oc2cccc(S(C)(=O)=NC(=O)C(C)(C)C)c2)nc1C (stereo not drawn) [Compound 68] |  | > 70% | more than 70% | more than 70% | control compared to the untreated check (Phakopsora pachyrhizi): > 70%; control compared to the untreated check (Bortytis cinera): > 70%; control compared to the untreated check (Rhizoctonia solani): more than 70%; control compared to the untreated check (Septoria lycopersici): more than 70% |
| CCN=S(=O)(CCC(C)C)c1cccc(Oc2cc(C)c(N=CN(C)CC)cc2C)c1 (stereo not drawn) [Compound 93] |  | > 70% |  | more than 70% | control compared to the untreated check (Bortytis cinera): > 70%; control compared to the untreated check (Rhizoctonia solani): more than 70%; control compared to the untreated check (Septoria lycopersici): more than 70% |
| CCN(C)C=Nc1cc(Br)c(N=S(=O)(CC2CC2)c2cccc(F)c2)nc1C (stereo not drawn) [Compound 106] | > 70% |  |  |  |  |
| CCN(C)C=Nc1cc(C)c(S(=O)(CC(C)C)=Nc2ccsc2)cc1Cl (stereo not drawn) [Compound 114] | > 70% |  |  |  |  |
| CCN(C)C=Nc1cc(Br)c(Oc2cccc(S(=O)(CC)=NCC3CCC3)c2)nc1C (stereo not drawn) [Compound 122] |  |  |  | more than 70% | control compared to the untreated check (Septoria lycopersici): more than 70%; control compared to the untreated check (Pyricularia oryzae [4]): > 70% |
| CCN(C)C=Nc1cc(C)c(S(=O)(CC(C)C)=Nc2ccc(OC)c(OC)c2)cc1Cl (stereo not drawn) [Compound 124] | > 70% |  |  |  |  |
| CCN(C)C=Nc1cc(C)c(Oc2ccc(S(C)(=O)=NC)cc2)cc1Cl (stereo not drawn) [Compound 126] |  | > 70% |  | more than 70% |  |
| CCN(C)C=Nc1cc(C)c(Cc2ccc(S(C)(=O)=NCC3CC3)cc2)cc1C (stereo not drawn) [Compound 131] |  | > 70% |  |  |  |
| CCN=S(C)(=O)c1cccc(Nc2cc(C)c(N=CN(C)CC)cc2C)c1 (stereo not drawn) [Compound 140] |  |  | more than 70% |  | control compared to the untreated check (Colletotrichum capsici): more than 70% |
| CCN=S(C)(=O)c1ccc(N(C)c2cc(C)c(N=CN(C)CC)cc2C)cc1 (stereo not drawn) [Compound 141] |  | > 70% | more than 70% | more than 70% | control compared to the untreated check (Rhizoctonia solani): more than 70% |
| CCN(C)C=Nc1cc(C)c(Oc2cccc(S(=O)(=NC)C(F)(F)F)c2)cc1Cl (stereo not drawn) [Compound 146] | > 70% |  | more than 70% |  | control compared to the untreated check (Phakopsora pachyrhizi): > 70%; control compared to the untreated check (Pyricularia oryzae [3]): more than 70%; control compared to the untreated check (Pyricularia oryzae [4]): > 70% |
| CCN(C)C=Nc1cc(C)c(Oc2ccccc2S(=N)(=O)C(F)(F)F)cc1Cl (stereo not drawn) [Compound 147] |  |  | more than 70% | more than 70% | control compared to the untreated check (Rhizoctonia solani): more than 70%; control compared to the untreated check (Colletotrichum capsici): more than 70%; control compared to the untreated check (Septoria lycopersici): more than 70%; control compared to the untreated check (Pyricularia oryzae [4]): > 70% |
| CCN=S(=O)(c1ccccc1Oc1cc(Cl)c(N=CN(C)CC)cc1C)C(F)(F)F (stereo not drawn) [Compound 150] |  |  | more than 70% |  | control compared to the untreated check (Colletotrichum capsici): more than 70% |
| CCN(C)C=Nc1ccc2c(c1)C(=O)N=S2(=O)Cc1cccc(C(F)(F)F)c1 (stereo not drawn) [Compound 166] |  | > 70% | more than 70% | more than 70% | control compared to the untreated check (Phakopsora pachyrhizi): > 70%; control compared to the untreated check (Rhizoctonia solani): more than 70% |
